Source: article PMC6521620
These are yes or no findings as the source states them, for the method shown. In cells and extracts the contact can be indirect. Some binding calls cover weakened binding; strength is not graded here.

Protein sequences, listed by entry. Tags and fused reporters are not part of them. Residues count along the entry.
UniProt P21530, residues 690-1062: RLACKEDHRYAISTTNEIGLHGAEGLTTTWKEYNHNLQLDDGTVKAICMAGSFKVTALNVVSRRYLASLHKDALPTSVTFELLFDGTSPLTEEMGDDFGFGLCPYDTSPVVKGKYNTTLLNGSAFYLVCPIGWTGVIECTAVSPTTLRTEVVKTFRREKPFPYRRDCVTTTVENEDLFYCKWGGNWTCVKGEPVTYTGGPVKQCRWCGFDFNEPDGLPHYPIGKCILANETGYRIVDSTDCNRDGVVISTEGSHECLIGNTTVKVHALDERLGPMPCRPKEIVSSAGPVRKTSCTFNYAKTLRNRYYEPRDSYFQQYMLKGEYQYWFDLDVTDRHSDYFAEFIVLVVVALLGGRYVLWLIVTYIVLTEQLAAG
UniProt P61292: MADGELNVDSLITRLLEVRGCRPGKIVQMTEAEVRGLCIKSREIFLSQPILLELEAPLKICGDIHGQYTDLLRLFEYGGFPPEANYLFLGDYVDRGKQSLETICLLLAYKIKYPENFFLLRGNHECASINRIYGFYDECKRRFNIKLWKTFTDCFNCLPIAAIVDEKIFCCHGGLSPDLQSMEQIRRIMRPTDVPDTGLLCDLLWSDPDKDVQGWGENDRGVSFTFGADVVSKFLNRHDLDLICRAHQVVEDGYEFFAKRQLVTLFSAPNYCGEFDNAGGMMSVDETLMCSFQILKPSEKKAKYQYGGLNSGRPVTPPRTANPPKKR

Assays:
[1] = target: CSFV E2 glycoprotein in CSFV strain Brescia (BICv)-infected SK6 cells (classical swine fever virus strain Brescia) (UniProt P21530); test: co-IP
[2] = target: CSFV E2 glycoprotein in CSFV strain Brescia (BICv)-infected SK6 cells (classical swine fever virus strain Brescia) (UniProt P21530); test: proximity ligation

endogenous PPP1CB of SK6 swine kidney cells (from UniProt P61292 1-327)
binding [1]: binds
binding [2]: binds
